The results in this text go back to article doi:10.1101/2020.05.18.101170.

Sequences of proteins named here, by UniProt entry; tags and fusion partners are left off.
UniProt P32121: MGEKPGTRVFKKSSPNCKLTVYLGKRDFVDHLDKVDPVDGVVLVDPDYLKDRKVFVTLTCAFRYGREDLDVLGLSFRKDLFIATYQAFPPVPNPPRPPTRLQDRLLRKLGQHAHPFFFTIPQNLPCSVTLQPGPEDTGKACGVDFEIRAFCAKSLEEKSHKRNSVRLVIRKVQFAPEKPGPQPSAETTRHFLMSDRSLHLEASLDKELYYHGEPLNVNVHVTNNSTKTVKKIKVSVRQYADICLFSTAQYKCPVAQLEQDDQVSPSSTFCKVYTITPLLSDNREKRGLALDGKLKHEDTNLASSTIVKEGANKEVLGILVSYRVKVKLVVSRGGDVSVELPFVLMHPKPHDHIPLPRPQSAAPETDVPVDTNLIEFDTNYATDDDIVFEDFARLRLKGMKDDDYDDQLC

These are yes or no findings as the source states them, for the method shown. In cells and extracts the contact can be indirect. Some binding calls cover weakened binding; strength is not graded here. Sequences can lack the tags named with a protein.

In the assay the target is T1, FLAG-FFA4-eYFP (mouse FFA4) (mouse) (UniProt Q7TMA4).
T1 sequence: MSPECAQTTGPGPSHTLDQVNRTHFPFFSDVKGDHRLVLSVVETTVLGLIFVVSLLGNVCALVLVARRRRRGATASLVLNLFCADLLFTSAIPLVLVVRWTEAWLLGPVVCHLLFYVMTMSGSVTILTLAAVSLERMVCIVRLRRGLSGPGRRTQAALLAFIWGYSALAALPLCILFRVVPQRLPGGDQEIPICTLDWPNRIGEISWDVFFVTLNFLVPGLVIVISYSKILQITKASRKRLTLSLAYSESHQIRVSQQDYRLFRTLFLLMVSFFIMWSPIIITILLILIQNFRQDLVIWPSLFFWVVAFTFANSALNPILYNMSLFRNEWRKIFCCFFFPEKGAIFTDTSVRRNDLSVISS
Nature of the assay: FRET or BRET. In general terms: Bioluminescence resonance energy transfer reports proximity on the nanometre scale.

“arrestin3-Rluc (from UniProt P32121 1-409)”: the binding result is reported as “binds”.
